Results are given in words; binding and its absence hold for the method and conditions named. Some entries that bind do so weakly or less than the wild type.
Key:
human CD40L [1] = biological target: T1, human CD40L (human, UniProt P29965 113-261, limits assumed); assay: CD40L competitive ELISA against plate-coated rhCD40 Fc
T1 sequence (looked up): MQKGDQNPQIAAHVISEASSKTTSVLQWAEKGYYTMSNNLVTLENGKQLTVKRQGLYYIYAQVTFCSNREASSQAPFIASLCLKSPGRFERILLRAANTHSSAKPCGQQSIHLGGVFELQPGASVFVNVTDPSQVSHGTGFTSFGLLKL

Protein sequences, listed by entry. Tags and fused reporters are not part of them. Lines headed by an entry give the natural chain unless they say otherwise; changes in a name come on top.
UniProt P02768: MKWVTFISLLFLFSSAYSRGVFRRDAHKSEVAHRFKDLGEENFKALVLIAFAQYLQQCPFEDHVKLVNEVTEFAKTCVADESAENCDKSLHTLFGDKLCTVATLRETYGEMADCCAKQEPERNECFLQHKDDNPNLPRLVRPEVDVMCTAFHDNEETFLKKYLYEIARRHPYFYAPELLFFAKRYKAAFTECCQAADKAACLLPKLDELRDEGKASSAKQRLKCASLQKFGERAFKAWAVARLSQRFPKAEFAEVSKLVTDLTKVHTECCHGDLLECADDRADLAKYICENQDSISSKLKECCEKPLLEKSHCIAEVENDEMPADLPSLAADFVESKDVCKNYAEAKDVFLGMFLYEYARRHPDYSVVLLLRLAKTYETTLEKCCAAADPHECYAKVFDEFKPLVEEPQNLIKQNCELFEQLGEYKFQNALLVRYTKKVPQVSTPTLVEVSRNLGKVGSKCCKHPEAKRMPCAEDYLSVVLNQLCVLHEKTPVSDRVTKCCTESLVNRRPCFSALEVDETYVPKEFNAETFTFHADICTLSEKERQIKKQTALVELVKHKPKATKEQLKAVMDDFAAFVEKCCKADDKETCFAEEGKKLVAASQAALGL

human CD40L [2] = biological target: T1, human CD40L; assay: ELISA on plate-coated hCD40L, anti-cystatin detection, without or with HSA
human serum albumin [3] = biological target: T2, human serum albumin (human, UniProt P02768 25-609); assay: hCD40L/HSA bridging ELISA: capture on hCD40L, HSA 10 uM, anti-HSA detection
T2 construct: also called HSA

human CD40L [4] = biological target: T1, human CD40L; assay: hCD40L/HSA bridging ELISAs
human serum albumin [5] = biological target: T2, human serum albumin; assay: hCD40L/HSA bridging ELISAs
human CD40L [6] = biological target: T1, human CD40L; assay: competitive ELISA: hCD40L (1 nM) premixed with the binder and added to plate-coated rhCD40 Fc; bound hCD40L detected with biotinylated anti-hCD40L polyclonal antibody
Protocol: To evaluate the avidity of the different formats, a CD40L competitive ELISA was performed. Briefly, the plates were coated with rhCD40 Fc at 1 μg/ml and incubated overnight at 4° C. The plates were washed twice with 150 μl of washing buffer (PBS, Tween 20 0.1%) with a plate washer and saturated with Casein 5% (Sigma) in PBS for 90 minutes at room temperature (25±1° C.). […] The resulting solution was then mixed and added to the plates. The plates were washed 3 times as described previously. […] The plates were incubated for 90 minutes at room temperature (25±1° C.). The plates were then washed. PolyHRP-Streptavidin was then diluted in dilution buffer and added to the plates. The plates were incubated an additional 90 minutes at room temperature (25±1° C.). Plates were washed 3 times as described previously and the substrate (TMB, Pierce Thermo-Scientific) was added in the plate for 10 minutes. The reaction was stopped using an acidic solution and the plates were read at 450-630 nm and the resulting percent inhibition was calculated.

human serum albumin [7] = biological target: T2, human serum albumin; assay: bridging ELISA: binder captured on plate-coated hCD40L, HSA 10 uM, bound HSA detected with anti-HSA antibody
Protocol: After saturation with 5% casein/PBS buffer, the plates were washed and a dilution of Stefin A protein variant or controls was incubated with HSA at a final concentration of 10 μM for 90 minutes. Plates were then washed, and a […], anti-HSA (HRP-conjugated) (Abcam), was added for 90 minutes. After a last washing step, TMB was added for the development of the experiment and the plates were read at 450 nm. The EC50 was then calculated using the interpolated non-linear four-parameters standard curve (FIG. 12C).

- binding (human CD40L [1]): binds
- binding (human CD40L [2]): binds
- binding (human serum albumin [3]): binds
- binding (human CD40L [4]): binds
- binding (human serum albumin [5]): binds
- binding (human CD40L [6]): binds
- binding (human serum albumin [7]): binds
B1: clone-230 XT76 (tetramer with a rigid linker and an HSA binding stefin A protein variant) (designed binder)
chain: IPGGLSEAKPATPEIQEIVDKVKPQLEEKTGETYGKLEAVQYKTQVVHYYVHYNDQGTNYYIKVRAGDNKYMHLKVFKSLWGENLFAKWEDLVLTGYQVDKNKDDELTGFAEAAAKEAAAKEAAAKEAAAKEAAAKEAAAKMIPGGLSEAKPATPEIQEIVDKVKPQLEEKTGETYGKLEAVQYKTQVVHYYVHYNDQGTNYYIKVRAGDNKYMHLKVFKSLWGENLFAKWEDLVLTGYQVDKNKDDELTGFAEAAAKEAAAKEAAAKEAAAKEAAAKEAAAKMIPGGLSEAKPATPEIQEIVDKVKPQLEEKTGETYGKLEAVQYKTQVVHYYVHYNDQGTNYYIKVRAGDNKYMHLKVFKSLWGENLFAKWEDLVLTGYQVDKNKDDELTGFAEAAAKEAAAKEAAAKEAAAKEAAAKEAAAKMIPGGLSEAKPATPEIQEIVDKVKPQLEEKTGETYGKLEAVQYKTQVVHYYVHYNDQGTNYYIKVRAGDNKYMHLKVFKSLWGENLFAKWEDLVLTGYQVDKNKDDELTGFAEAAAKEAAAKEAAAKEAAAKEAAAKEAAAKMIPRGLSEAKPATPEIQEIVDKVKPQLEEKTGETYGKLEAVQYKTQVLANFFQRRWPGSTNYYIKVRAGDNKYMHLKVFNGPWKFRNTDRGADRVLTGYQVDKNKDDELTGF
